In test [1] the target is T1, native type I collagen from rat tail (rat) (UniProt P02454+P02466). Put plainly: ELISA; solid-state binding assay: native recombinant collagens or rat tail type I collagen (0.02 mg/ml) immobilised on 96-well plates, GST-I domain in 1× PBS with 2 mM MgCl2 added for 1 h at room temperature, detected with anti-GST HRP antibody, A450; single I domain concentration (Figs. 3, 4A) and dose response 0-1.8 μM (Fig. 4B); both purified. In general terms: ELISA stands for enzyme-linked immunosorbent assay.

Amino acid sequences for entries named in this document (tags omitted). A change or cut given only in a name is not applied to a line headed by its entry. Residues count along the entry.
UniProt P02454: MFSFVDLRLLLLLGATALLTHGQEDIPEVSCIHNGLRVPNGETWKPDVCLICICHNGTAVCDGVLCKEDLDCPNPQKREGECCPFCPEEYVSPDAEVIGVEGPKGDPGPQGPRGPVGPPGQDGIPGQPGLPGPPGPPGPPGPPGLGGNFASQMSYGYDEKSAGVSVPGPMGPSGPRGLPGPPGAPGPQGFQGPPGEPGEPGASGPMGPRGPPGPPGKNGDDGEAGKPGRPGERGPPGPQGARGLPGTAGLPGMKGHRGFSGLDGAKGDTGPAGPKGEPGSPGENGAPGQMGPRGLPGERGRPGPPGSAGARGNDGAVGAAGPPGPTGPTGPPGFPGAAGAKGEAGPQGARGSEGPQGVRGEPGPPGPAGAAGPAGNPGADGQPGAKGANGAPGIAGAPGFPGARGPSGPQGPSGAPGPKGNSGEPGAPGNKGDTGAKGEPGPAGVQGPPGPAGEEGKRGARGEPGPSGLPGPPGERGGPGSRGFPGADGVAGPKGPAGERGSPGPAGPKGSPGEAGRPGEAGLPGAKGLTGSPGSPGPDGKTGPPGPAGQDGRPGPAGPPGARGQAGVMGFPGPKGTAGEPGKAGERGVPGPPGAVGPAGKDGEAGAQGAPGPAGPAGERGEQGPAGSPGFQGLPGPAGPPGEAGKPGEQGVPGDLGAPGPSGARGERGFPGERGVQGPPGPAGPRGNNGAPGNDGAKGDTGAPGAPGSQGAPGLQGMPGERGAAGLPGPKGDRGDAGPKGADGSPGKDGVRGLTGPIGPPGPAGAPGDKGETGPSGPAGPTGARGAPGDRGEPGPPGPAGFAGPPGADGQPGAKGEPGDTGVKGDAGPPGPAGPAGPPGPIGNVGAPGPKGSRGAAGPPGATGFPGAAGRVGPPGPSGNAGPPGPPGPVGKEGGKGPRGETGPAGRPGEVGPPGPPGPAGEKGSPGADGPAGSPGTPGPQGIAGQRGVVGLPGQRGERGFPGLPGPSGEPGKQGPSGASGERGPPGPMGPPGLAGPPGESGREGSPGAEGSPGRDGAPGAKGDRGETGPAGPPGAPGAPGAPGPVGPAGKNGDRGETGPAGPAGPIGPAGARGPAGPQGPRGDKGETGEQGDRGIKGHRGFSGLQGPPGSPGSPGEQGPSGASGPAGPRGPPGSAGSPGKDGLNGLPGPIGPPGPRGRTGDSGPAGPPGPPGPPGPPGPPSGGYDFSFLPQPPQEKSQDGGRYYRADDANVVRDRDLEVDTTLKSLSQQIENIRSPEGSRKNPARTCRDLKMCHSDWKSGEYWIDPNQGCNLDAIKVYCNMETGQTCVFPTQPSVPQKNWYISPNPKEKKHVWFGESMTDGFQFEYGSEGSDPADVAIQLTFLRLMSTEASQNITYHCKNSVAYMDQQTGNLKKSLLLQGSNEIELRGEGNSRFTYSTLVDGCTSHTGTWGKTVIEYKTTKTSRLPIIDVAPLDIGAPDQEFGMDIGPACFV
UniProt P02466: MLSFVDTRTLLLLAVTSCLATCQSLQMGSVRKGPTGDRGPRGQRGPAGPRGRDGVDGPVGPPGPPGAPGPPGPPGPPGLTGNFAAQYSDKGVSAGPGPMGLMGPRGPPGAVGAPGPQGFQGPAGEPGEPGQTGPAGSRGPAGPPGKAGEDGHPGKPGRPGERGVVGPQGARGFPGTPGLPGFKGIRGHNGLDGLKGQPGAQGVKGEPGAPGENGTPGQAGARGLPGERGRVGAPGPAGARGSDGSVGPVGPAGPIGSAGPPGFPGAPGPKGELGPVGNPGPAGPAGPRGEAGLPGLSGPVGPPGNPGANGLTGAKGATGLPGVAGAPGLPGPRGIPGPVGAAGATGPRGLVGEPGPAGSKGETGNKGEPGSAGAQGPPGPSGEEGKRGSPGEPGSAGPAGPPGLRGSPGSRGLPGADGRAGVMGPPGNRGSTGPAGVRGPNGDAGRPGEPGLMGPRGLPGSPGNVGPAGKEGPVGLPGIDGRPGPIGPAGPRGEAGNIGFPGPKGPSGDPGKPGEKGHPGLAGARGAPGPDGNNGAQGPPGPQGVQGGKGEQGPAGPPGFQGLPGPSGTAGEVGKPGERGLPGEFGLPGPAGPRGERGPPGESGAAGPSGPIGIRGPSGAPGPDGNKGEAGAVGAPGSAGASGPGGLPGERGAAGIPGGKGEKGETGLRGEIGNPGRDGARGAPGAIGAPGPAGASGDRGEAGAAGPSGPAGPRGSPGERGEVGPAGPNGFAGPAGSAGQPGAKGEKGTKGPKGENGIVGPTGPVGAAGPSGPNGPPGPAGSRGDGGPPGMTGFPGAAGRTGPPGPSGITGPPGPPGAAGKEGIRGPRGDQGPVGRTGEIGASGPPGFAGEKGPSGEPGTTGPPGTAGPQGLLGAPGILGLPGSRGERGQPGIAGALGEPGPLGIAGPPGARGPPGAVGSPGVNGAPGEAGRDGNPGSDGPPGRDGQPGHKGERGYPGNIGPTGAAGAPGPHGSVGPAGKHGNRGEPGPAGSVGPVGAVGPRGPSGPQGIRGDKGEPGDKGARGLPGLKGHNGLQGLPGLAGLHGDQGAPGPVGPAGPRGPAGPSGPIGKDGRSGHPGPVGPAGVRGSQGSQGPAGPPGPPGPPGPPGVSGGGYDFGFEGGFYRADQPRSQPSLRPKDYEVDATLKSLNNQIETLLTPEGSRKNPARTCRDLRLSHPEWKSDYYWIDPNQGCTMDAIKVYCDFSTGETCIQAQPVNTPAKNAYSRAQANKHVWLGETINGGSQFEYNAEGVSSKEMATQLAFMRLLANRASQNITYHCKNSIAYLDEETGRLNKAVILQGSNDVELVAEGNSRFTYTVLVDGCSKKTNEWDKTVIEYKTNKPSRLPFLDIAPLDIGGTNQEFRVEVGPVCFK
UniProt P17301, residues 172-355: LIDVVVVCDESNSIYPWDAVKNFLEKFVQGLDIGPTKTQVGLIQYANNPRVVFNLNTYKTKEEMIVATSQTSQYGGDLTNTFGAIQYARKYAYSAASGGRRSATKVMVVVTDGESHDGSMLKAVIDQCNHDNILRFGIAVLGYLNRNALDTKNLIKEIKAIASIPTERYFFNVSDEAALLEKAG

Test [2] addresses T1, native type I collagen from rat tail (rat). Briefly: condition: only collagen denatured at 75 °C for 30 min; ELISA; solid-state binding assay as a1, but the collagens (20 μg/ml) denatured at 75 °C for 30 min and immobilised immediately; both purified.

No constants are given. Whether binding was seen depends on the method and setting. Some binding calls cover weakened binding; strength is not graded here.

Consider “recombinant I domain from the integrin α2 subunit (from UniProt P17301 172-355) (domain or fragment)”, for which the binding entry in test [1] is listed as “binds”; in test [2], “no binding”.

These data come from publication PMC5009287.
